Data taken from article PMC6851102.
These are yes or no findings as the source states them, for the method shown. In cells and extracts the contact can be indirect. Some results given as binding are weak or reduced against the parent protein; the word gives no strength.

Target: T1, ZEB1, endogenous in human NSCLC cell lines (human (endogenous in H157 and H1299)), P37275
T1 chain: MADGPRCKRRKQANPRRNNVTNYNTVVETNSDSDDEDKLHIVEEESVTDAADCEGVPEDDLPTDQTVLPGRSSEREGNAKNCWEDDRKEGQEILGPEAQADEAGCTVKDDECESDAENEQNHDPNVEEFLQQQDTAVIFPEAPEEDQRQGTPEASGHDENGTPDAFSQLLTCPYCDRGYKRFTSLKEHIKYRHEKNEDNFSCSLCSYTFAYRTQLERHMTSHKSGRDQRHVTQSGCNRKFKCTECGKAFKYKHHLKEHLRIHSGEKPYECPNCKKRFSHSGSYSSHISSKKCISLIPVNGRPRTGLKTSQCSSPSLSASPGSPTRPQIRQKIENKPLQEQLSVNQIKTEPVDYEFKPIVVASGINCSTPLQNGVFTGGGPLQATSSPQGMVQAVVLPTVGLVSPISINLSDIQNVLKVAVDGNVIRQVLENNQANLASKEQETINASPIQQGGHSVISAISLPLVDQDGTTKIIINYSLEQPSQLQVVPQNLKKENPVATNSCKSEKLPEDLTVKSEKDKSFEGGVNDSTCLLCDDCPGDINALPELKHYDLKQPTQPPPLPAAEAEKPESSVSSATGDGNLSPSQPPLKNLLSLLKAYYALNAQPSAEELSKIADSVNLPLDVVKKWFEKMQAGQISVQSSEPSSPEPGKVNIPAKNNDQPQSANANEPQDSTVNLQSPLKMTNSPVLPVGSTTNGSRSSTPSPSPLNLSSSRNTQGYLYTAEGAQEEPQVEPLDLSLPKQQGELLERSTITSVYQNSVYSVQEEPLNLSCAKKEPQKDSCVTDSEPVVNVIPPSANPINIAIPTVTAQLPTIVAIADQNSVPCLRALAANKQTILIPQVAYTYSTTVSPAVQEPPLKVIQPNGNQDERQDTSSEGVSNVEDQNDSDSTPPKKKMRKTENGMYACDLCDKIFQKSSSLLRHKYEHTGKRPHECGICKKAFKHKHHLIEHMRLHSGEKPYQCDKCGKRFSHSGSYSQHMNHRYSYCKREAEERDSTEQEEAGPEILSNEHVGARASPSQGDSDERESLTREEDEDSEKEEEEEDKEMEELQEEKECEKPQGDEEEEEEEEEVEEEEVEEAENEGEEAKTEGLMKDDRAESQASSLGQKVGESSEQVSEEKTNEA
Test: proximity ligation; endogenous proteins in fixed, permeabilised H157, H1299, 344SQ and 531LN2 cells; primary antibodies to ZEB1 and a NuRD member; Duolink In Situ Red Starter Mouse/Rabbit kit; confocal microscopy
Conditions: remark: other sources report otherwise

binding: binds
B1: MTA3, human, endogenous, Q9BTC8 1-594 (protein)
chain: MAANMYRVGDYVYFENSSSNPYLIRRIEELNKTASGNVEAKVVCFYRRRDISNTLIMLADKHAKEIEEESETTVEADLTDKQKHQLKHRELFLSRQYESLPATHIRGKCSVALLNETESVLSYLDKEDTFFYSLVYDPSLKTLLADKGEIRVGPRYQADIPEMLLEGESDEREQSKLEVKVWDPNSPLTDRQIDQFLVVARAVGTFARALDCSSSVRQPSLHMSAAAASRDITLFHAMDTLYRHSYDLSSAISVLVPLGGPVLCRDEMEEWSASEASLFEEALEKYGKDFNDIRQDFLPWKSLTSIIEYYYMWKTTDRYVQQKRLKAAEAESKLKQVYIPTYSKPNPNQISTSNGKPGAVNGAVGTTFQPQNPLLGRACESCYATQSHQWYSWGPPNMQCRLCAICWLYWKKYGGLKMPTQSEEEKLSPSPTTEDPRVRSHVSRQAMQGMPVRNTGSPKSAVKTRQAFFLHTTYFTKFARQVCKNTLRLRQAARRPFVAINYAAIRAEYADRHAELSGSPLKSKSTRKPLACIIGYLEIHPAKKPNVIRSTPSLQTPTTKRMLTTPNHTSLSILGKRNYSHHNGLDELTCCVSD
